Where a name gives a salt, the structure may show the parent alone. The list shows a part of the results. The calls rarely recur for the same compound in another form.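 Kinases, fused to nanoluciferase, were expressed in K562 cells; luminescence was measured every 4 h from 2 to 18 h as percent of control (DMSO = 100%, positive control = 0%). A time point is decreased if signal falls significantly (2 sigma). Hits were called by the authors by a rule that is not shown; the count of time points alone does not decide it.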
Legend:
Experiment in all cases: number of time points (of 5) at which kinase-Nluc abundance scored as decreased, DMSO-normalised (count); higher = more persistent destabilization
Conditions in all cases: K562; 2-18 h
ALK = ALK (UniProt Q9UM73)
ARAF = ARAF (UniProt P10398)
AURKA = AURKA (UniProt O14965)
AURKB = AURKB (UniProt Q96GD4)
AURKC = AURKC (UniProt Q9UQB9)
BLK = BLK (UniProt P51451)
BMX = BMX (UniProt P51813)
BRAF = BRAF (UniProt P15056)
BRAF_V600E = tested on: BRAF_V600E
BTK = BTK (UniProt Q06187)
CAMK2A = CAMK2A (UniProt Q9UQM7)
CAMK2G = CAMK2G (UniProt Q13555)
CDK10 = CDK10 (UniProt Q15131)
CDK2 = CDK2 (UniProt P24941)
CDK3 = CDK3 (UniProt Q00526)
CDK5 = CDK5 (UniProt Q00535)
CDK6 = CDK6 (UniProt Q00534)
CHEK2 = CHEK2 (UniProt O96017)
CSF1R = CSF1R (UniProt P07333)
CSK = CSK (UniProt P41240)

Sequences of proteins named here, by UniProt entry; tags and fusion partners are left off. A change or cut given only in a name is not applied to a line headed by its entry.
UniProt Q9UM73: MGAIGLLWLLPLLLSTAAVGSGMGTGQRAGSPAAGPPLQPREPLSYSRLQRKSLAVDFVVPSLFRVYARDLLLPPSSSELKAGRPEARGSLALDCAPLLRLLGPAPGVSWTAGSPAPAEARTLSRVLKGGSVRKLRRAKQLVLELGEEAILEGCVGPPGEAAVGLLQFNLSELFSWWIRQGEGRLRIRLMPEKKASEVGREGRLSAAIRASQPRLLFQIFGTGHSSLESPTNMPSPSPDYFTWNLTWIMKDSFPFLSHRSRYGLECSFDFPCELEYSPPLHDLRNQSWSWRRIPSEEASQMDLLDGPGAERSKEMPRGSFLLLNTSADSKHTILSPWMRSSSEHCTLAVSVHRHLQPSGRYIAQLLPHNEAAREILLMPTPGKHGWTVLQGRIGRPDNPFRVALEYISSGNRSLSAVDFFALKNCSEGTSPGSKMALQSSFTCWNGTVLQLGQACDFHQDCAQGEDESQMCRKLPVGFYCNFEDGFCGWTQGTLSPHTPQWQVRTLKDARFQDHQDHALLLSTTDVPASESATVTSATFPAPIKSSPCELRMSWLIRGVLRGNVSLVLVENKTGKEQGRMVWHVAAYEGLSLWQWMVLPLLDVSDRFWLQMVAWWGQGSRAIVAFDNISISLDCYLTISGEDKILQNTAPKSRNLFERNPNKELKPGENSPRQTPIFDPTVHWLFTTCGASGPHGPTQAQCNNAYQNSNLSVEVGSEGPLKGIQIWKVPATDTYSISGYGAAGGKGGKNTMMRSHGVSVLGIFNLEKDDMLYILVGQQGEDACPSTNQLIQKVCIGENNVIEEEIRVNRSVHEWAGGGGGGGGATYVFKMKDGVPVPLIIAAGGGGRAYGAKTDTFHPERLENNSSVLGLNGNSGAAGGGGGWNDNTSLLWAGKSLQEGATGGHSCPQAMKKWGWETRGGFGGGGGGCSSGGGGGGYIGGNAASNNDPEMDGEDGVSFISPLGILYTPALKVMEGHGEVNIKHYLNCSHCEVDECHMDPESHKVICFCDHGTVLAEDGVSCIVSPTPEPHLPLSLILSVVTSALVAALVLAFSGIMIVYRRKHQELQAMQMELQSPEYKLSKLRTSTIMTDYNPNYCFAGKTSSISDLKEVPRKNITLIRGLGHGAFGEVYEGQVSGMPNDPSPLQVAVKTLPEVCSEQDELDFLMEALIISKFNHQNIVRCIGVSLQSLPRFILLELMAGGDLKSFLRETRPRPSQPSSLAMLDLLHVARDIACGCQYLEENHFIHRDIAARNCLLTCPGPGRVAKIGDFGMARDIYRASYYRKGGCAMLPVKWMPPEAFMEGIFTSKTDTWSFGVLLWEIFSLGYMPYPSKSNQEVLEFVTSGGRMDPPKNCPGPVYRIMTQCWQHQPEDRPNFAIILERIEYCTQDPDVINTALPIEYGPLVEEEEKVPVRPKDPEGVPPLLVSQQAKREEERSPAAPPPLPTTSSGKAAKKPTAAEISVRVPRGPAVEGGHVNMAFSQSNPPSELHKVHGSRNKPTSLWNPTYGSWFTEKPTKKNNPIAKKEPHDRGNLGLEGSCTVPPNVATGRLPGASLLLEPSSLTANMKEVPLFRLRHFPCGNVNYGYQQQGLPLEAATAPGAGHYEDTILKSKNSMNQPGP
UniProt O14965: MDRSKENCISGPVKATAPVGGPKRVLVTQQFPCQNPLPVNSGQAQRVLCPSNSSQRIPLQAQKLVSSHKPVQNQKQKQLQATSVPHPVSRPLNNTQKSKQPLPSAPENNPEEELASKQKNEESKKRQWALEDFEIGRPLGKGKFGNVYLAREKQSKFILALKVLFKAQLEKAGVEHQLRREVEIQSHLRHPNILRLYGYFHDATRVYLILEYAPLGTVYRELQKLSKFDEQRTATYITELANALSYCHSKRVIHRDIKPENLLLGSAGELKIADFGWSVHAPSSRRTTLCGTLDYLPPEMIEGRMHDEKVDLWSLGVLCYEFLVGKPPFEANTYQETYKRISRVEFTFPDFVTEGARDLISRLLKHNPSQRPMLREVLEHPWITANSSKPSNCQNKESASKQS
UniProt Q96GD4, whole entry: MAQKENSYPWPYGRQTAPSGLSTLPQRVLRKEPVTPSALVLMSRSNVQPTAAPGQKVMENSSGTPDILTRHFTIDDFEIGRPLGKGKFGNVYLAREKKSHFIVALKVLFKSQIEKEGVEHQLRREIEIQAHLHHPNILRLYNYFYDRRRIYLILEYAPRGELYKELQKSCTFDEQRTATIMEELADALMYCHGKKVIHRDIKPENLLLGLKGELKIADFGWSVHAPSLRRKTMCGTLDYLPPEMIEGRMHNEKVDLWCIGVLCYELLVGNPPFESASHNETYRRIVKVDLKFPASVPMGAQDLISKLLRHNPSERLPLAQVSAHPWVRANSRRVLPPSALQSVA
UniProt Q9UQB9: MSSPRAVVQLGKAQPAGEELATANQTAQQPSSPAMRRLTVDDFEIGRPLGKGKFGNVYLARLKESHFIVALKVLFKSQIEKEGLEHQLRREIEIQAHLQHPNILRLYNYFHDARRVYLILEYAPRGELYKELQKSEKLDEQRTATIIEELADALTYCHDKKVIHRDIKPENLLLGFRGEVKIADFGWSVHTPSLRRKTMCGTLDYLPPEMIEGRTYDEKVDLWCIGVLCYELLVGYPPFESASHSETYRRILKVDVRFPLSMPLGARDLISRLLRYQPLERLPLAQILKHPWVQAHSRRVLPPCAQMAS
UniProt Q9UQM7, whole entry: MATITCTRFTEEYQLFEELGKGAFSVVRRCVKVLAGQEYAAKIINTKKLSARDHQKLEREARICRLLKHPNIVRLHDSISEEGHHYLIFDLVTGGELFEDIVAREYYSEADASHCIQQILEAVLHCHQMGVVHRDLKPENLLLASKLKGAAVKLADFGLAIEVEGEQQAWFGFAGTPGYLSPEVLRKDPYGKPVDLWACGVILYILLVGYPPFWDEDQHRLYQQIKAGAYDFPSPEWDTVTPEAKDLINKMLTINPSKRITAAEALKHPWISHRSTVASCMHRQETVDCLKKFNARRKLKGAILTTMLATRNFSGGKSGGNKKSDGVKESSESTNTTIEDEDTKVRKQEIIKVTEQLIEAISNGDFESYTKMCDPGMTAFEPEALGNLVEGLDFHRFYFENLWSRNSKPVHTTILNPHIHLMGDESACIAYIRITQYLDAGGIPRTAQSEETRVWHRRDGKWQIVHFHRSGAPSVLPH
UniProt Q13555: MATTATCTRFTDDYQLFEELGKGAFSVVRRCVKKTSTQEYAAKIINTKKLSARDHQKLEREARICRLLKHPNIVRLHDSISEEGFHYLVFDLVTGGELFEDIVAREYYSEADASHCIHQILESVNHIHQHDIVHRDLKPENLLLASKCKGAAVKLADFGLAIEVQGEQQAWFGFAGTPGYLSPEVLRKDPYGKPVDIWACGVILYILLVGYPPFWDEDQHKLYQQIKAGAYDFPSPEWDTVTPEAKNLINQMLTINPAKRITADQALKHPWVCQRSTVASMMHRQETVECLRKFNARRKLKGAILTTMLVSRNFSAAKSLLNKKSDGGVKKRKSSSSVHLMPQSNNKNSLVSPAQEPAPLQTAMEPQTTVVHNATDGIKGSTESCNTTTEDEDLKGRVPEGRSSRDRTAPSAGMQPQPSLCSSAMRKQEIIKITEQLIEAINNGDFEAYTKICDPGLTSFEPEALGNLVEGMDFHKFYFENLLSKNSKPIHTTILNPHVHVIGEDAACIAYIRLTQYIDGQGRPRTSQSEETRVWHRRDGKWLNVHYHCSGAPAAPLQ
UniProt Q15131: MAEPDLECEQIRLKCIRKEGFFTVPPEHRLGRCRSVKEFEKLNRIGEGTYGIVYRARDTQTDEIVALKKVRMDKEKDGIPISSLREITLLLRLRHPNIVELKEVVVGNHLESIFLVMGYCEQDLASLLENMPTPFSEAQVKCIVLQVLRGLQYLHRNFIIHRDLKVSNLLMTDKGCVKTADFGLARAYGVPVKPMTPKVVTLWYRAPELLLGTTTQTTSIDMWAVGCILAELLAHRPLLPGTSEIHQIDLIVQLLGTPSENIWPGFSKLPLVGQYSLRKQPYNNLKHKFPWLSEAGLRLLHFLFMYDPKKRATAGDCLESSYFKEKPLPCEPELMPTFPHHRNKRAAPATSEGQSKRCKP
UniProt Q00526: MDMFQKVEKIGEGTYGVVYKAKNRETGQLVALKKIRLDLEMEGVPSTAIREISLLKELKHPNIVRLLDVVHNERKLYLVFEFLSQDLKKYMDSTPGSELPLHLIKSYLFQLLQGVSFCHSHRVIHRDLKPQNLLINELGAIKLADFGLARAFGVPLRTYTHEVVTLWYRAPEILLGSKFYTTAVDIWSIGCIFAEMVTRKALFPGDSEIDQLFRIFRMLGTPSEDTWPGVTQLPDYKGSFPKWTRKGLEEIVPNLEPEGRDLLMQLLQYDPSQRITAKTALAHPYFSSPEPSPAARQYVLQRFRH
UniProt Q00535, whole entry, looked up: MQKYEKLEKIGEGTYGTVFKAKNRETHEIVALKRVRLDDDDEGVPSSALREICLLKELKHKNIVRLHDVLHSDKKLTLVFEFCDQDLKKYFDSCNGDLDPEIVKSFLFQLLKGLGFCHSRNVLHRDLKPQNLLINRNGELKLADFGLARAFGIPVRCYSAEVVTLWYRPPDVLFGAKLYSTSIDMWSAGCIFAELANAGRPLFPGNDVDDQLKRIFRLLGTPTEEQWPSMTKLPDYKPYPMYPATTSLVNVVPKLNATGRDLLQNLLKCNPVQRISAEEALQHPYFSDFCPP
UniProt Q00534, whole entry: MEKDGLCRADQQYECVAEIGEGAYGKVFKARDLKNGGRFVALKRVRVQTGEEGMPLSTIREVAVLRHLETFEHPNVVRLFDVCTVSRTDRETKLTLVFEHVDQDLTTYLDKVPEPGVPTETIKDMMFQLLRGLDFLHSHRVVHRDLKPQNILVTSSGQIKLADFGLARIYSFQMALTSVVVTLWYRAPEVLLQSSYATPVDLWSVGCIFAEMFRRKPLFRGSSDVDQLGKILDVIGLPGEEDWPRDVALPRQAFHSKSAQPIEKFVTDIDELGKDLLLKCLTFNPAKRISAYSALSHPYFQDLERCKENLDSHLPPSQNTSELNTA
UniProt P07333, whole entry: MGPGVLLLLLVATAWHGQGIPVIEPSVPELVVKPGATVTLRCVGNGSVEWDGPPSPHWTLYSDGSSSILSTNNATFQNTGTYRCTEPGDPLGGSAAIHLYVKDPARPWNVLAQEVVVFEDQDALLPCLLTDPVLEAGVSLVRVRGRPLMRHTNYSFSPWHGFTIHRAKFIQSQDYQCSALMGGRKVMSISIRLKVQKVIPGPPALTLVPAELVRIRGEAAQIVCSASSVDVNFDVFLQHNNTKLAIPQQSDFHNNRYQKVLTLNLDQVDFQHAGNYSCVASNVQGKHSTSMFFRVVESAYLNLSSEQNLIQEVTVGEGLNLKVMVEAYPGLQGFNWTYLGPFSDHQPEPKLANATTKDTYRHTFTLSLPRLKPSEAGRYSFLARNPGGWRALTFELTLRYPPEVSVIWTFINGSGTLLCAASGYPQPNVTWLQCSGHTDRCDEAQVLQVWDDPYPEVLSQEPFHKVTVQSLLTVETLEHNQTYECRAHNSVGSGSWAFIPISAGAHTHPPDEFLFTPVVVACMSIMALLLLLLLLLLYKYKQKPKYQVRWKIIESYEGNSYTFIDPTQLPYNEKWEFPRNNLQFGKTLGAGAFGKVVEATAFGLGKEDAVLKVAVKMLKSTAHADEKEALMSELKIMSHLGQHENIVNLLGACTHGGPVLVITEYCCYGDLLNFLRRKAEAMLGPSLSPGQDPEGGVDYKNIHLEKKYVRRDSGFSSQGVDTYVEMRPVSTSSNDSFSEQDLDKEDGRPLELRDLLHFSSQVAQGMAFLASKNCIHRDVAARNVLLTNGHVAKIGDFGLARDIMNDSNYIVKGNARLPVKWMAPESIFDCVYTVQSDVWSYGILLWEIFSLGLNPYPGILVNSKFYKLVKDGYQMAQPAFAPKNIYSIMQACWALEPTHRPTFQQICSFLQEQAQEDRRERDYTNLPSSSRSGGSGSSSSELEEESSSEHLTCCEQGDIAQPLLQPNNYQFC
UniProt P41240: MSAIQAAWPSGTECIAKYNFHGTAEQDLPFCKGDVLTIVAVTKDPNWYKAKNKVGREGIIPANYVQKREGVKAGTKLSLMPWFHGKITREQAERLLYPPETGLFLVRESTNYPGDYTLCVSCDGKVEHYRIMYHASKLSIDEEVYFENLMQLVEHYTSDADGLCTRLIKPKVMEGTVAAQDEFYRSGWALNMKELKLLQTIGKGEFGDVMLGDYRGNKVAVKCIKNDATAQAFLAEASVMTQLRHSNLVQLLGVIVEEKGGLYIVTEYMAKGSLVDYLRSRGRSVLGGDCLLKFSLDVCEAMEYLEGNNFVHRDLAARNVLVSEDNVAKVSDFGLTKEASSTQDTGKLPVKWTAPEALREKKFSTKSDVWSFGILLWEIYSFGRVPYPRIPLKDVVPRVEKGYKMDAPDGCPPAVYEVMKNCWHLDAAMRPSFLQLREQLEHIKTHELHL

SMILES | number of time points (ALK) | number of time points (ARAF) | number of time points (AURKA) | number of time points (AURKB) | number of time points (AURKC) | number of time points (BLK) | number of time points (BMX) | number of time points (BRAF) | number of time points (BRAF_V600E) | number of time points (BTK) | number of time points (CAMK2A) | number of time points (CAMK2G) | number of time points (CDK10) | number of time points (CDK2) | number of time points (CDK3) | number of time points (CDK5) | number of time points (CDK6) | number of time points (CHEK2) | number of time points (CSF1R) | number of time points (CSK)
Cc1cccc(Oc2cnc(=O)[nH]c2)c1 [Tolimidone] (10 µM) | 0 | 0 | 0 | 0 | 0 | 0 | 0 | 0 | 0 | 0 | 0 | 0 | 0 | 0 | 0 | 0 | 0 | 0 | 0 | 0
c1cncc(CN2CCC(n3ncc4c(N5CCOCC5)nc(-c5ccc6[nH]ccc6c5)nc43)CC2)c1 (10 µM) | 0 | 0 | 4 | 4 | 0 | 2 | 4 | 1 | 4 | 0 | 0 | 0 | 0 | 0 | 0 | 0 | 0 | 2 | 0 | 0
FC(F)(c1ccc2ncccc2c1)c1nnc2ccc(-c3ccncc3)nn12 (10 µM) | 0 | 0 | 0 | 0 | 0 | 0 | 0 | 0 | 0 | 0 | 0 | 0 | 0 | 0 | 0 | 0 | 0 | 0 | 0 | 0
C[C@@H](c1ccc(F)cc1)n1nnc2cnc3ccc(-c4ccc5ocnc5c4)cc3c21 (10 µM) | 0 | 0 | 0 | 0 | 0 | 0 | 0 | 0 | 0 | 0 | 0 | 0 | 0 | 0 | 0 | 0 | 0 | 0 | 0 | 0
Cc1nc(-c2cn3c(n2)-c2ccc(-c4cnn(C(C)(C)C(N)=O)c4)cc2OCC3)n(C(C)C)n1 [Taselisib] (10 µM) | 0 | 0 | 0 | 0 | 0 | 1 | 0 | 0 | 0 | 0 | 0 | 0 | 0 | 0 | 0 | 0 | 0 | 0 | 0 | 0
COc1ccc(Cl)c(Nc2nc3ccccc3nc2NS(=O)(=O)c2cccc(NC(=O)C(C)(C)N)c2)c1 [Pilaralisib] (10 µM) | 0 | 0 | 0 | 0 | 0 | 0 | 0 | 0 | 0 | 0 | 0 | 0 | 0 | 0 | 0 | 0 | 0 | 0 | 0 | 0
CCCS(=O)(=O)Nc1ccc(F)c(C(=O)c2c[nH]c3ncc(-c4ccc(Cl)cc4)cc23)c1F [Vemurafenib] (10 µM) | 1 | 0 | 0 | 0 | 0 | 2 | 2 | 1 | 0 | 0 | 0 | 0 | 0 | 0 | 0 | 0 | 0 | 0 | 0 | 0
N#Cc1c(C2CCNCC2)cc(-c2c(O)cccc2OCC2CC2)nc1N [ACHP (Hydrochloride)] (10 µM) | 0 | 0 | 0 | 0 | 0 | 0 | 0 | 0 | 3 | 0 | 0 | 0 | 0 | 0 | 0 | 0 | 0 | 0 | 0 | 0
C=CC(=O)Nc1cc(C)ccc1Nc1nc(Nc2cc(OC)ncc2C)ncc1C(F)(F)F (10 µM) | 0 | 0 | 0 | 0 | 0 | 0 | 0 | 0 | 0 | 0 | 0 | 0 | 0 | 0 | 0 | 0 | 0 | 0 | 0 | 0
